Test results as given in patent publication US20220195049A1 (Scripps Research, published 2022).
These are yes or no findings as the source states them, for the method shown. Some results given as binding are weak or reduced against the parent protein; the word gives no strength.

Amino acid sequences for entries named in this document (tags omitted). Residues count along the entry.
UniProt Q9NZQ7, residues 19-239: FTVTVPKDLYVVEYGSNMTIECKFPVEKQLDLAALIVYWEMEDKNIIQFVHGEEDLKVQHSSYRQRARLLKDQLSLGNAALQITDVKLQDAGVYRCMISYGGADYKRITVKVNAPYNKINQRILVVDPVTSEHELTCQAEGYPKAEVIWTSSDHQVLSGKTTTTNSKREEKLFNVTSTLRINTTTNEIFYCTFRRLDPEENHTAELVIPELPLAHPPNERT

Target: PD-L1-Fc (PD-L1 antigen protein, extracellular region Met1-Thr239 fused to human Fc) (human) (UniProt Q9NZQ7)
Test: competitive ELISA on a PD-L1-coated plate, about 4 more hours in a solution of PD-L1 antigen protein

| Binder | binding |
| --- | --- |
| KL001-01 (antibody, V domains shown) VH: QVQLVESGAEVKKPGSSVKVSCKASGGTFSSYAISWVRQAPGQGLEWMGRIIPILGIANYAQKFQGRVTVTADKSTSTAYMELSSLRSEDTAVYYCAQSGYGYAYGSFDYWGQGTLVTVSS VL: QLVLTQPPSVSGAPGQTVTISCTGPTIGAGYDVHWYQQLPGAAPKLLIYGNLNRPSGVPDRFSGSKSGTSASLAITDLQAEDEADYYCQSYDRTLGVVFGGGTKLTVL | binds |
| KL001-16 (antibody, V domains shown) VH: QVQLVESGAEVKKPGSSVKVSCKASGGTFSSYAISWVRQAPGQGLEWMGRIIPILGIANYAQKFQGRVTVTADKSTSTAYMELSSLRSEDTAVYYCARSGYGYAYGSFDYWGQGTLVTVSS VL: QLVLTQPPSVSGAPGQTVTISCTGPTIGAGYDVHWYQQLPGAAPKLLIYGNLNRPSGVPDRFSGSKSGTSASLAITDLQAEDEADYYCQSYDSRLGVVFGGGTKLTVL | binds |
| KL001-02 (antibody, V domains shown) VH: QVQLVESGAEVKKPGSSVKVSCKASGGTFSSYAISWVRQAPGQGLEWMGRIIPILGIANYAQKFQGRVTVTADKSTSTAYMELSSLRSEDTAVYYCARSGHGYAYGSFDYWGQGTLVTVSS VL: QLVLTQPPSVSGAPGQTVTISCTGPTIGQGYDVHWYQQLPGAAPKLLIYGNLNRPSGVPDRFSGSKSGTSASLAITDLQAEDEADYYCQSYDSRLGVVFGGGTKLTVL | binds |
| KL001-04 (antibody, V domains shown) VH: QVQLVESGAEVKKPGSSVKVSCKASGGTFSSYAISWVRQAPGQGLEWMGRIIPILGIANYAQKFQGRVTVTADKSTSTAYMELSSLRSEDTAVYYCARSGYGYAYGSFAAWGQGTLVTVSS VL: QLVLTQPPSVSGAPGQTVTISCTGPTIGAGYDVHWYQQLPGAAPKLLIYGNLNRPSGVPDRFSGSKSGTSASLAITDLQAEDEADYYCQSYDSTLGVVFGGGTKLTVL | binds |
| KL001-06 (antibody, V domains shown) VH: QVQLVESGAEVKKPGSSVKVSCKASGGTFSSYAISWVRQAPGQGLEWMGRIIPILGIANYAQKFQGRVTVTADKSTSTAYMELSSLRSEDTAVYYCARSGYGYAYGSFDVWGQGTLVTVSS VL: QLVLTQPPSVSGAPGQTVTISCTGPTIGAGYDVHWYQQLPGAAPKLLIYGNLNRPSGVPDRFSGSKSGTSASLAITDLQAEDEADYYCQSYDSRLGVVFGGGTKLTVL | binds |
| KL001-07 (antibody, V domains shown) VH: QVQLVESGAEVKKPGSSVKVSCKASGGTFSSYAISWVRQAPGQGLEWMGRQIPILGIANYAQKFQGRVTVTADKSTSTAYMELSSLRSEDTAVYYCARSGYGYAYGSFDYWGQGTLVTVSS VL: QLVLTQPPSVSGAPGQTVTISCTGPTIGAGYDVHWYQQLPGAAPKLLIYGNLNRPSGVPDRFSGSKSGTSASLAITDLQAEDEADYYCQSYDSRLGVVFGGGTKLTVL | binds |
| KL001-08 (antibody, V domains shown, In the Biacore assay it was captured by anti-human IgG (Fc), so it carried a human Fc there; also called KL001-8) VH: QVQLVESGAEVKKPGSSVKVSCKASGGTFSGYAISWVRQAPGQGLEWMGRIIPALGIANYAQKFQGRVTVTADKSTSTAYMELSSLRSEDTAVYYCARSGYGYAYGSFDYWGQGTLVTVSS VL: QLVLTQPPSVSGAPGQTVTISCTGPTIGAGYDVHWYQQLPGAAPKLLIYGNLNRPSGVPDRFSGSKSGTSASLAITDLQAEDEADYYCQSYDSTHGVVFGGGTKLTVL | binds |
| KL001-09 (antibody, V domains shown) VH: QVQLVESGAEVKKPGSSVKVSCKASGGTFSSYAISWVRQAPGQGLEWMGRIIPILQIANYAQKFQGRVTVTADKSTSTAYMELSSLRSEDTAVYYCARSGYGYAYGSFDYWGQGTLVTVSS VL: QLVLTQPPSVSGAPGQTVTISCTGPPIGAGYDVHWYQQLPGAAPKLLIYGNLNRPSGVPDRFSGSKSGTSASLAITDLQAEDEADYYCQSYDSTPGVVFGGGTKLTVL | binds |
| KL001-10 (antibody, V domains shown) VH: QVQLVESGAEVKKPGSSVKVSCKASGGTFSSYAISWVRQAPGQGLEWMGRIIPILGIANYAQKFQGRVTVTADKSTSTAYMELSSLRSEDTAVYYCARSGYGYAYGSFDYWGQGTLVTVSS VL: QLVLTQPPSVSGAPGQTVTISCTGPTIGAGYDVHWYQQLPGAAPKLLIYGNLNRPSGVPDRFSGSKSGTSASLAITDLQAEDEADYYCQSYDQTLGVVFGGGTKLTVL | binds |
| KL001-11 (antibody, V domains shown) VH: QVQLVESGAEVKKPGSSVKVSCKASGGTFSSYAISWVRQAPGQGLEWMGRIIPILGIANYAQKFQGRVTVTADKSTSTAYMELSSLRSEDTAVYYCARSGYGYAYGSFDYWGQGTLVTVSS VL: QLVLTQPPSVSGAPGQTVTISCTGPTIGAGYDVHWYQQLPGAAPKLLIYGNLNRPSGVPDRFSGSKSGTSASLAITDLQAEDEADYYCQSYDRTLGVVFGGGTKLTVL | binds |
| KL001-12 (antibody, V domains shown) VH: QVQLVESGAEVKKPGSSVKVSCKASGGTFSSYAISWVRQAPGQGLEWMGRIIPILGIANYAQKFQGRVTVTADKSTSTAYMELSSLRSEDTAVYYCARSGYGYAYGSFDYWGQGTLVTVSS VL: QLVLTQPPSVSGAPGQTVTISCTGPTIGAGYDVHWYQQLPGAAPKLLIYGNLNRPSGVPDRFSGSKSGTSASLAITDLQAEDEADYYCQSYDSALGVVFGGGTKLTVL | binds |
| KL001-14 (antibody, V domains shown) VH: QVQLVESGAEVKKPGSSVKVSCKASGGTFSSYAISWVRQAPGQGLEWMGRIIPILGIANYAQKFQGRVTVTADKSTSTAYMELSSLRSEDTAVYYCARSGYGYAYQSFDYWGQGTLVTVSS VL: QLVLTQPPSVSGAPGQTVTISCTGPQIGAGYDVHWYQQLPGAAPKLLIYGNLNRPSGVPDRFSGSKSGTSASLAITDLQAEDEADYYCQSYDSRLGVVFGGGTKLTVL | binds |
| KL001-15 (antibody, V domains shown) VH: QVQLVESGAEVKKPGSSVKVSCKASGGTFSSYAISWVRQAPGQGLEWMGRIIPILGIANYAQKFQGRVTVTADKSTSTAYMELSSLRSEDTAVYYCARSGYGYAYGSFDYWGQGTLVTVSS VL: QLVLTQPPSVSGAPGQTVTISCTGPTIQAGYDVHWYQQLPGAAPKLLIYGNLNRPSGVPDRFSGSKSGTSASLAITDLQAEDEADYYCQSYDSRLGVVFGGGTKLTVL | binds |
| KL001-17 (antibody, V domains shown) VH: QVQLVESGAEVKKPGSSVKVSCKASGGTFSSYAISWVRQAPGQGLEWMGRIIPILGIANYAQKFQGRVTVTADKSTSTAYMELSSLRSEDTAVYYCARSGYGYAYGSFDYWGQGTLVTVSS VL: QLVLTQPPSVSGAPGQTVTISCTGPVIGAGYDVHWYQQLPGAAPKLLIYGNLNRPSGVPDRFSGSKSGTSASLAITDLQAEDEADYYCQSYDSRLGVVFGGGTKLTVL | binds |
| KL001-18 (antibody, V domains shown) VH: QVQLVESGAEVKKPGSSVKVSCKASGGTFSSYAISWVRQAPGQGLEWMGRIIPILGIANYAQKFQGRVTVTADKSTSTAYMELSSLRSEDTAVYYCARSGYGYAYGSFDYWGQGTLVTVSS VL: QLVLTQPPSVSGAPGQTVTISCTGQTIGAGYDVHWYQQLPGAAPKLLIYGNLNRPSGVPDRFSGSKSGTSASLAITDLQAEDEADYYCQSYDSTEGVVFGGGTKLTVL | binds |
| KL001-19 (antibody, V domains shown) VH: QVQLVESGAEVKKPGSSVKVSCKASGGTFSSYAISWVRQAPGQGLEWMGRIIPILGIANYAQKFQGRVTVTADKSTSTAYMELSSLRSEDTAVYYCARSGYGYAYGSFDYWGQGTLVTVSS VL: QLVLTQPPSVSGAPGQTVTISCTGPTIGAGYDVHWYQQLPGAAPKLLIYGNLNRPSGVPDRFSGSKSGTSASLAITDLQAEDEADYYCQSYDSTVGVVFGGGTKLTVL | binds |
| KL001-20 (antibody, V domains shown) VH: QVQLVESGAEVKKPGSSVKVSCKASGGTFSSYAISWVRQAPGQGLEWMGRIIPIMGIANYAQKFQGRVTVTADKSTSTAYMELSSLRSEDTAVYYCARSGYGYAYGSFDYWGQGTLVTVSS VL: QLVLTQPPSVSGAPGQTVTISCTGPTIGAGYDVHWYQQLPGAAPKLLIYGNLNRPSGVPDRFSGSKSGTSASLAITDLQAEDEADYYCQSYDSTLGVVFGGGTKLTVL | binds |
| KL001-21 (antibody, V domains shown) VH: QVQLVESGAEVKKPGSSVKVSCKASGGTFSSYAISWVRQAPGQGLEWMGRIIPVLGIANYAQKFQGRVTVTADKSTSTAYMELSSLRSEDTAVYYCARSGYGYAYGSFDYWGQGTLVTVSS VL: QLVLTQPPSVSGAPGQTVTISCTGPTIGAGYDVHWYQQLPGAAPKLLIYGNLNRPSGVPDRFSGSKSGTSASLAITDLQAEDEADYYCQAYDSTLGVVFGGGTKLTVL | binds |
| KL001-22 (antibody, V domains shown) VH: QVQLVESGAEVKKPGSSVKVSCKASGGTFSSYAISWVRQAPGQGLEWMGRISPILGIANYAQKFQGRVTVTADKSTSTAYMELSSLRSEDTAVYYCARSGYGYAYGSFDYWGQGTLVTVSS VL: QLVLTQPPSVSGAPGQTVTISCTGPTIGAGYDVHWYQQLPGAAPKLLIYGNLNRPSGVPDRFSGSKSGTSASLAITDLQAEDEADYYCQSYDSTLGVVFGGGTKLTVL | binds |
| KL001-23 (antibody, V domains shown) VH: QVQLVESGAEVKKPGSSVKVSCKASGGTFSSYAISWVRQAPGQGLEWMGRIIPILGIANYAQKFQGRVTVTADKSTSTAYMELSSLRSEDTAVYYCARSGYGYAYGVFDHWGQGTLVTVSS VL: QLVLTQPPSVSGAPGQTVTISCTGPTIGAGYDVHWYQQLPGAAPKLLIYGNLNRPSGVPDRFSGSKSGTSASLAITDLQAEDEADYYCQSYDSRLGVVFGGGTKLTVL | binds |
| KL001-24 (antibody, V domains shown) VH: QVQLVESGAEVKKPGSSVKVSCKASGGTFSSYAISWVRQAPGQGLEWMGRIIPILGQANYAQKFQGRVTVTADKSTSTAYMELSSLRSEDTAVYYCARSGYGYAYGSFDYWGQGTLVTVSS VL: QLVLTQPPSVSGAPGQTVTISCTGPTIGAGFDVHWYQQLPGAAPKLLIYGNLNRPSGVPDRFSGSKSGTSASLAITDLQAEDEADYYCQSYDSRLGVVFGGGTKLTVL | binds |
| KL001-26 (antibody, V domains shown) VH: QVQLVESGAEVKKPGSSVKVSCKASGGTFSSYAISWVRQAPGQGLEWMGRIIPILGIANYAQKFQGRVTVTADKSTSTAYMELSSLRSEDTAVYYCARSGYGYAYGSFDYWGQGTLVTVSS VL: QLVLTQPPSVSGAPGQTVTISCTGPTIGQGYDVHWYQQLPGAAPKLLIYGNLNRPSGVPDRFSGSKSGTSASLAITDLQAEDEADYYCQSYDSRLGVVFGGGTKLTVL | binds |
